A short description of the data set: general procedure: Fmoc solid-phase peptide synthesis; PS Rink-Amide MBHA resin; DIC / Oxyma Pure. As to conditions: whole synthesis, scale 0.250 mmol.

With Example 3 Int-A, the crude mass was 399 mg.

As for Example 4 Int-A, the crude mass is 300 mg.

Source of the values: patent US11814444B2 (Ra Pharmaceuticals, Inc., priority 2018, dated 2023).
